Test: In vivo test: body weight and feed intake
Design: species or system sheep
Settings: for Body weight: ruminal cannula, average of weights prior and after chamber measurements, control 43.2; for DMI: control 809.5

SMILES: CCOC(=O)CCO[N+](=O)[O-] [Ethyl-3-nitrooxy propionate]
- Body weight (Dose 1 (50 mg/animal per day)): 43.9 kg
- DMI (Dose 1 (50 mg/animal per day)): 858.5 g/day
- Body weight (Dose 2 (500 mg/animal per day)): 42.6 kg
- DMI (Dose 2 (500 mg/animal per day)): 809.7 g/day
